# pIC50: −log10 of the molar value. Some of these results come from one statement about several compounds together.
# System: 5-2 Luc cells, 9-13 cells or Huh-7 cells
# Experiment: Cytotoxicity assay (Cell Titer Glo)
# Settings: read-out: IC50 cytotoxicity (number of viable cells), liver cells including an HCV replicon, 24 hr
row,SMILES,pIC50
1,"O=C(Nc1cc(-c2cc(-c3c(Cl)cccc3Cl)no2)ccc1OCCN1CCOCC1)C(Cl)Cl [Compound 171, 2,2-Dichloro-N-[3-[3-(2,6-dichlorophenyl)-5-isoxazolyl]-6-(N-morpholino-2-ethyleneoxy)phenyl] Acetamide]",< 5.00
2,"O=C(Nc1cccc(-c2cc(-c3c(C4CCCC4)cccc3C(F)(F)F)no2)c1)C(Cl)Cl [Compound 105, 2,2-Dichloro-N-[3-[3-(2-cyclopentyl-6-trifluoromethylphenyl)-5-isoxazolyl]phenyl] Acetamide]",< 5.30
3,"CC(C)c1cccc(Cl)c1-c1cc(-c2cccc(NC(=O)C(Cl)Cl)c2)on1 [Compound 39, 2,2-Dichloro-N-[3-[3-(2-chloro-6-isopropylphenyl)-5-isoxazolyl]phenyl] Acetamide]",< 5.00
4,"O=C(Nc1cccc(-c2cc(-c3ccccc3OCc3ccccc3)no2)c1)C(Cl)Cl [Compound 161, 2,2-Dichloro-N-[3-[3-(2-benzyloxyphenyl)-5-isoxazolyl]phenyl] Acetamide]",< 5.00
5,"O=C(Nc1cccc(-c2cc(-c3c(Cl)cc(OCCCN4CCOCC4)cc3Cl)no2)c1)C(Cl)Cl [Compound 73, 2,2-Dichloro-N-[3-[3-[2,6-dichloro-4-(N-morpholinopropyleneoxy)phenyl]-5-isoxazolyl]-phenyl] Acetamide]",< 5.00
6,"O=C(Nc1cccc(-c2cc(-c3cc(C(F)(F)F)ccc3Cl)no2)c1)C(Cl)Cl [Compound 141, 2,2-Dichloro-N-[3-[3-(2-chloro-5-trifluoromethylphenyl)-5-isoxazolyl]phenyl] Acetamide]",< 5.00
7,"O=C(Nc1cccc(-c2cc(-c3c(Cl)ccc(Cl)c3Cl)no2)c1)C(Cl)Cl [Compound 137, 2,2-Dichloro-N-[3-[3-(2,3,6-trichlorophenyl)-5-isoxazolyl]phenyl] Acetamide]",< 5.00
8,"Cc1ccc(Cl)c(-c2cc(-c3cccc(NC(=O)C(Cl)Cl)c3)on2)c1F [Compound 51, 2,2-Dichloro-N-[3-[3-(6-chloro-2-fluoro-3-methylphenyl)-5-isoxazolyl]phenyl] Acetamide]",< 5.00
9,"O=C(Nc1ccc(F)c(-c2cc(-c3c(Cl)cccc3Cl)no2)c1)C(Cl)Cl [Compound 13, 2,2-Dichloro-N-[3-[3-(2,6-dichlorophenyl)-5-isoxazolyl]-4-fluorophenyl] Acetamide]",< 5.00
10,"O=C(Nc1cccc(-c2cc(-c3c(Cl)cc(OCCN4CCOCC4)cc3Cl)no2)c1)C(Cl)Cl [Compound 75, 2,2-Dichloro-N-[3-[3-[2,6-dichloro-4-(N-morpholinoethyleneoxy)phenyl]-5-isoxazolyl]-phenyl] Acetamide]",< 5.00
11,"O=C(Nc1cccc(-c2cc(-c3c(F)cccc3C(F)(F)F)no2)c1)C(Cl)Cl [Compound 41, 2,2-Dichloro-N-[3-[3-(2-fluoro-6-trifluoromethylphenyl)-5-isoxazolyl]phenyl] Acetamide]",< 5.00
12,"Cc1ccc(F)c(-c2cc(-c3cccc(NC(=O)C(Cl)Cl)c3)on2)c1F [Compound 149, 2,2-Dichloro-N-[3-[3-(2,6-difluoro-3-methylphenyl)-5-isoxazolyl]phenyl] Acetamide]",< 5.00
13,"COc1cccc(C(F)(F)F)c1-c1cc(-c2cccc(NC(=O)C(Cl)Cl)c2)on1 [Compound 77, 2,2-Dichloro-N-[3-[3-(2-methoxy-6-trifluoromethylphenyl)-5-isoxazolyl]phenyl] Acetamide]",< 5.00
14,"O=C(Nc1cccc(-c2cc(-c3c(Cl)cccc3Cl)no2)c1)C(Br)Br [Compound 29, 2,2-Dibromo-N-[3-[3-(2,6-dichlorophenyl)-5-isoxazolyl]phenyl] Acetamide]",< 5.00
15,"O=C(Nc1cccc(-c2cc(-c3ccccc3-c3ccccc3)no2)c1)C(Cl)Cl [Compound 123, 2,2-Dichloro-N-[3-[3-(2-phenyl)phenyl-5-isoxazolyl]phenyl] Acetamide]",< 5.00
16,"Cc1ccc(F)c(-c2cc(-c3cccc(NC(=O)C(Cl)Cl)c3)on2)c1Cl [Compound 15, 2,2-Dichloro-N-[3-[3-(2-chloro-6-fluoro-3-methylphenyl)-5-isoxazolyl]phenyl] Acetamide]",< 5.00
17,"O=C(Nc1cccc(-c2cc(-c3c(Cl)cccc3C3CC3)no2)c1)C(Cl)Cl [Compound 79, 2,2-Dichloro-N-[3-[3-(2-chloro-6-cyclopropylphenyl)-5-isoxazolyl]phenyl] Acetamide]",< 5.00
18,"CC(C)c1cccc(C(C)C)c1-c1cc(-c2cccc(NC(=O)C(Cl)Cl)c2)on1 [Compound 121, 2,2-Dichloro-N-[3-[3-(2,6-diisopropylphenyl)-5-isoxazolyl]phenyl] Acetamide]",< 5.00
19,"COc1cccc(F)c1-c1cc(-c2cccc(NC(=O)C(Cl)Cl)c2)on1 [Compound 43, 2,2-Dichloro-N-[3-[3-(2-fluoro-6-methoxyphenyl)-5-isoxazolyl]phenyl] Acetamide]",< 5.00
20,"O=C(O)c1ccc(Cl)c(-c2cc(-c3cccc(NC(=O)C(Cl)Cl)c3)on2)c1Cl [Compound 139, 2,2-Dichloro-N-[3-[3-(3-carboxy-2,6-dichlorophenyl)-5-isoxazolyl]phenyl] Acetamide]",< 5.00
21,O=C(Nc1cc(-c2cc(-c3c(Cl)cccc3Cl)no2)ccc1N1CCOCC1)C(Cl)Cl [Compound 169],< 5.00

row,SMILES,pIC50
1,"CCOc1ccccc1-c1cc(-c2cccc(NC(=O)C(Cl)Cl)c2)on1 [Compound 61, 2,2-Dichloro-N-[3-[3-(2-ethoxyphenyl)-5-isoxazolyl]phenyl] Acetamide]",< 5.00
2,"O=C(Nc1cccc(-c2cc(-c3c(Cl)cc(OCCN4CCCCC4)cc3Cl)no2)c1)C(Cl)Cl [Compound 125, 2,2-Dichloro-N-[3-[3-[2,6-dichloro-4-(N-piperidinylethylenoxy)phenyl]-5-isoxazolyl]-phenyl] Acetamide]",< 5.00
3,"O=C(Nc1cccc(-c2cc(-c3c(Cl)cccc3Cl)on2)c1)C(Cl)Cl [Compound 5, 2,2-Dichloro-N-[3-[5-(2,6-dichlorophenyl)-3-isoxazolyl]phenyl] Acetamide]",< 5.00
4,"O=C(Nc1cccc(-c2cc(-c3c(Cl)cccc3N3CCOCC3)no2)c1)C(Cl)Cl [Compound 7, 2,2-Dichloro-N-[3-[3-[2-chloro-6-(N-morpholino)phenyl]-5-isoxazolyl]phenyl] Acetamide]",< 5.00
5,"O=C(CCl)Nc1cccc(-c2cc(-c3c(Cl)cccc3Cl)no2)c1 [Compound 67, 2-Chloro-N-[3-[3-(2,6-dichlorophenyl)-5-isoxazolyl]phenyl] Acetamide]",< 5.30
6,"O=C(Nc1cccc(-c2cc(-c3ccccc3C(F)(F)F)no2)c1)C(Cl)Cl [Compound 33, 2,2-Dichloro-N-[3-[3-(2-trifluoromethylphenyl)-5-isoxazolyl]phenyl] Acetamide]",< 5.00
7,"CCCCc1cccc(Cl)c1-c1cc(-c2cccc(NC(=O)C(Cl)Cl)c2)on1 [Compound 103, 2,2-Dichloro-N-[3-[3-(2-chloro-6-n-butylphenyl)-5-isoxazolyl]phenyl] Acetamide]",< 5.00
8,"O=C(Nc1cccc(-c2cc(-c3c(F)ccc(F)c3Cl)no2)c1)C(Cl)Cl [Compound 53, 2,2-Dichloro-N-[3-[3-(2-chloro-3,6-difluorophenyl)-5-isoxazolyl]phenyl] Acetamide]",< 5.00
9,"O=C(Nc1cccc(-c2cc(-c3c(Cl)cccc3Cl)no2)c1)C(F)F [Compound 145, 2,2-Difluoro-N-[3-[3-(2,6-dichlorophenyl)-5-isoxazolyl]phenyl] Acetamide]",< 5.00
10,"O=C(Nc1cccc(-c2cc(-c3c(Cl)cccc3C3CCCC3)no2)c1)C(Cl)Cl [Compound 97, 2,2-Dichloro-N-[3-[3-(2-chloro-6-cyclopentylphenyl)-5-isoxazolyl]phenyl] Acetamide]",< 5.00
11,"COc1cccc(C)c1-c1cc(-c2cccc(NC(=O)C(Cl)Cl)c2)on1 [Compound 91, 2,2-Dichloro-N-[3-[3-(2-methoxy-6-methylphenyl)-5-isoxazolyl]phenyl] Acetamide]",< 5.00
12,"Cc1cccc(C)c1-c1cc(-c2cccc(NC(=O)C(Cl)Cl)c2)on1 [Compound 47, 2,2-Dichloro-N-[3-[3-(2,6-dimethylphenyl)-5-isoxazolyl]phenyl] Acetamide]",< 5.30
13,"O=C(Nc1cccc(-c2cc(-c3c(O)cccc3Cl)no2)c1)C(Cl)Cl [Compound 83, 2,2-Dichloro-N-[3-[3-(2-chloro-6-hydroxyphenyl)-5-isoxazolyl]phenyl] Acetamide]",< 5.00
14,"CN(C)c1cc(Cl)c(-c2cc(-c3cccc(NC(=O)C(Cl)Cl)c3)on2)c(Cl)c1 [Compound 65, 2,2-Dichloro-N-[3-[3-(2,6-dichloro-4-dimethylaminophenyl)-5-isoxazolyl]phenyl] Acetamide]",< 5.00
15,"CN(C(=O)C(Cl)Cl)c1cccc(-c2cc(-c3c(Cl)cccc3Cl)no2)c1 [Compound 57, 2,2-Dicbloro-N-[3-[3-(2,6-dichlorophenyl)-5-isoxazolyl]phenyl]-N-methyl Acetamide]",< 5.00
16,"O=C(Nc1cccc(-c2cc(-c3ccccc3OC(F)F)no2)c1)C(Cl)Cl [Compound 45, 2,2-Dichloro-N-[3-[3-(2-difluoromethoxyphenyl)-5-isoxazolyl]phenyl] Acetamide]",< 5.00
17,"CC(C)c1cccc(C(F)(F)F)c1-c1cc(-c2cccc(NC(=O)C(Cl)Cl)c2)on1 [Compound 93, 2,2-Dichloro-N-[3-[3-(2-isopropyl-6-trifluoromethylphenyl)-5-isoxazolyl]phenyl] Acetamide]",< 5.00
18,"COC(=O)c1ccc(Cl)c(-c2cc(-c3cccc(NC(=O)C(Cl)Cl)c3)on2)c1Cl [Compound 135, 2,2-Dichloro-N-[3-[3-(3-carbomethoxy-2,6-dichlorophenyl)-5-isoxazolyl]phenyl] Acetamide]",< 5.00
19,"Cc1cccc(C(F)(F)F)c1-c1cc(-c2cccc(NC(=O)C(Cl)Cl)c2)on1 [Compound 85, 2,2-Dichloro-N-[3-[3-(2-methyl-6-trifluoromethylphenyl)-5-isoxazolyl]phenyl] Acetamide]",< 5.00
20,"COc1cccc(Cl)c1-c1cc(-c2cccc(NC(=O)C(Cl)Cl)c2)on1 [Compound 81, 2,2-Dichloro-N-[3-[3-(2-chloro-6-methoxyphenyl)-5-isoxazolyl]phenyl] Acetamide]",< 5.00

# Source: patent publication US6759538B2, “Substituted diphenyl heterocycles useful for treating HCV infection” (priority 2001, dated 2004)
